Reference: PMC4598089

How the values were obtained:
[1] = target: hnRNP-K (nuclear extract) (Homo sapiens) (UniProt P61978); experiment: EMSA, complex impeded by anti-hnRNP-K; settings: EMSA: 10 ug nuclear extract or 120 nM Sp1, 20 fmol biotin probe; binding buffer per earlier paper (not given); 6% native PAGE, 0.5x TBE pH 8.3; protein in an extract; label: 3' biotin; single-stranded DNA
[2] = target: Sp1 (nuclear extract) (Homo sapiens) (UniProt P08047); experiment: EMSA supershift; settings: EMSA: 10 ug nuclear extract or 120 nM Sp1, 20 fmol biotin probe; binding buffer per earlier paper (not given); 6% native PAGE, 0.5x TBE pH 8.3; protein in an extract; label: 3' biotin
[3] = target: Sp1 (nuclear extract) (Homo sapiens) (UniProt P08047); experiment: EMSA, complex diminished by anti-Sp1; settings: apparent lower affinity than Sp1-1; EMSA: 10 ug nuclear extract or 120 nM Sp1, 20 fmol biotin probe; binding buffer per earlier paper (not given); 6% native PAGE, 0.5x TBE pH 8.3; protein in an extract; label: 3' biotin
[4] = target: Sp1 (nuclear extract) (Homo sapiens) (UniProt P08047); experiment: competition with a labelled probe; settings: 100-fold excess against Sp1-1, ARS and Sp1-3 probes; EMSA: 10 ug nuclear extract or 120 nM Sp1, 20 fmol biotin probe; binding buffer per earlier paper (not given); 6% native PAGE, 0.5x TBE pH 8.3; protein in an extract; label: unlabelled

Sequence: TCTCCACCCCGCCTCCCCCCACCCTGCCTT [ARS forward strand (C-rich)]
- binding result [1]: binds

Sequence: CGGCCCGGTGGGGGCGGGACCCGACTCGCA (double strand) [Sp1-1]
- binding result [2]: binds

Sequence: TTCTCCCCACCCGCCCCCCCGCCCCCGTCG (double strand) [Sp1-3]
- binding result [3]: binds more weakly

Sequence: TCTCCACCCCGCCTCCCCCCACCCTGCCTT (double strand) [ARS]
- binding result [3]: binds more weakly

Sequence: ATTCGATCGGGGCGGGGCGAGC (double strand) [Sp1 cons]
- binding result [4]: binds

Sequence: TTCTCCCCACCCGCCCCCCCGCCCCCGTCG [Sp1-3 forward strand (C-rich)]
- binding result [1]: binds

The exact form of at least one protein or probe is not confirmed. At least one result comes from cells or an extract, where the contact may be indirect. For part of these data: Weaker means in comparison with the reference protein, sequence or condition of that experiment.
